This is one part of the list. Further columns of the screen follow, without active or inactive calls. The list favours compounds with an active or inconclusive main result. Words in brackets tell the shape of the fitted curve; partial curves, single points and poor fits give uncertain potencies.
Assay: qHTS Assay to Find Inhibitors of Chronic Active B-Cell Receptor Signaling
Settings: ABC-DLBCL IkBa-CBG/CBR reporter, luminescence ratio (green luciferase fused to IkBa over red control in TMD8 lymphoma cells), 4 h
Method in brief: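 Doxycycline induced both beetle luciferases in TMD8 lymphoma cells; IKK-driven degradation limits the IkappaBalpha-fused green signal, while red luminescence normalises for cell number and nonspecific effects. Compounds tested up to 46 uM, 4 hrs.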

[1] = measured here: CBR red luminescence, cell number
[2] = measured here: IkBa-CBG green luminescence

Row | Structure (SMILES) | AC50 [1] | AC50 [2]
1 | COC(=O)Nc1nc(-c2ccccc2)c(C(=O)c2ccccc2)s1 | 16.4 µM [rising, partial curve, poor fit] | 
2 | CCn1c(SCC(=O)c2ccc(Cl)cc2)nnc1-c1cccs1 | 29.1 µM [falling, single point] | 
3 | COc1ccc(NC(=O)c2ccc(-n3nc(C)c[n+]3[O-])cc2)cc1 | 25.9 µM [falling, single point] | 
4 | CC(C)NC(=O)c1cc2n(n1)C(C(F)(F)F)CC(c1ccco1)N2 (stereo unspecified) | 17.8 µM [rising, partial curve, poor fit] | 
5 | CCOCCCn1c(C)nc2c(c1=O)c1nc3ccccc3nc1n2CCC1=CCCCC1 | 6.31 µM [falling, single point] | 
6 | O=C(C(Cc1ccccc1)n1cccc1)N1CCCCCC1 (stereo unspecified) | 14.6 µM [falling, single point] | 
7 | CC(C)CNC(=O)COC(=O)CCC(=O)c1ccc(F)cc1 | 29.1 µM [rising, single point] | 
8 | Cc1ccc(NC(=S)N2CCC(NC(=O)c3ccc(C)cc3)CC2)cc1 | 6.31 µM [rising, partial curve, poor fit] | 
9 | COCCSc1nc2sc3c(c2c(=O)n1-c1ccccc1)CCN(C)C3 | 8.2 µM [rising, partial curve, poor fit] | 
10 | COc1ccc(-c2cc(C(=O)Nc3c(C)nn(Cc4ccccc4Cl)c3C)no2)cc1 | 0.731 µM [rising, partial curve, poor fit] | 
11 | CCN(CC)CCCNC(=S)N1CCN(c2nc(-c3ccccc3)cs2)CC1 | 35.5 µM [falling, single point] | 
12 | C/C(CC(=O)Nc1ccc(N(C)C)cc1)=N\NC(=O)c1ccccc1O | 1.78 µM [falling, full curve] | 
13 | COc1ccc(S(=O)(=O)N2CCN=C2SCc2cccnc2)cc1 | 15.8 µM [rising, single point] | 
14 | CCc1nnc(NC(=O)c2ccc3ccccc3n2)s1 | 8.91 µM [falling, partial curve] | 3.55 µM [falling, full curve, poor fit]
15 | Cc1ccc(NC(=O)c2ccc(S(=O)(=O)N3CCC(C)CC3)cc2)cc1 | 11.6 µM [rising, partial curve] | 
16 | CCOC(=O)CC(=O)CSc1nc(N)c(C#N)c(-c2ccc(Cl)cc2)c1C#N | 10 µM [falling, partial curve] | 
17 | Cc1onc(-c2ccccc2Cl)c1C(=O)N(Cc1ccccc1)C(C)C | 35.5 µM [falling, single point] | 
18 | O=C(Oc1ccccc1C(=S)N1CCOCC1)c1ccc([N+](=O)[O-])cc1[N+](=O)[O-] | 5.62 µM [falling, full curve] | 
19 | O=C(OCc1c(-c2ccccc2)ncc2ccccc12)c1ccc(Cl)cc1Cl | 1.84 µM [falling, full curve] | 
20 | COc1ccc(OC)c(NC(=O)C2CCN(S(=O)(=O)c3c(C)noc3C)CC2)c1 | 32.6 µM [rising, partial curve, poor fit] | 

Row | Structure (SMILES) | AC50 [1] | AC50 [2]
21 | O=C(NCCc1nc2ccccc2[nH]1)/C(=C/c1ccc2c(c1)OCO2)NC(=O)c1ccc(Cl)cc1Cl | 16.4 µM [falling, single point] | 
22 | O=c1c(NCCc2ccc(Cl)cc2)c(-c2ccccc2)c1=O | 3.55 µM [rising, full curve] | 
23 | CCOC(=O)C1=C(COC(=O)c2cccnc2SC)NC(=O)NC1C (stereo unspecified) | 25.9 µM [rising, partial curve, poor fit] | 
24 | COCCNC(=S)N(CCc1c(C)[nH]c2ccc(F)cc12)Cc1ccc(C)cc1 | 22.4 µM [falling, single point] | 
25 | CCc1sc(C(=O)Nc2ncccc2O)cc1C | 1.12 µM [rising, full curve, poor fit] | 
26 | CN(C)c1ccc(NC(=O)c2cnsn2)cc1 | 8.91 µM [falling, partial curve] | 
27 | O=C(Nc1c2c(nn1-c1ccc(F)cc1)CS(=O)(=O)C2)C12CC3CC(CC(C3)C1)C2 | 4.47 µM [rising, single point] | 
28 | Cc1ccc(C2CC2C(=O)NNC(=S)Nc2cccc(C)c2)cc1 (stereo unspecified) | 4.61 µM [falling, partial curve, poor fit] | 
29 | O=C(Nc1nnc(C2=COCCO2)o1)c1cccc(Br)c1 | 35.5 µM [falling, single point] | 
30 | O=C(Oc1c(Cl)cc(Cl)c2cccnc12)c1ccco1 | 2.91 µM [rising, full curve, poor fit] | 4.11 µM [falling, full curve]
31 | O=C(Nc1nc2ccccc2s1)c1ccc(N2CCCCC2)c([N+](=O)[O-])c1 |  | 2.91 µM [rising, full curve, poor fit]
32 | COc1ccc([N+](=O)[O-])cc1C(=O)NCCOc1ccc(Cl)cc1 | 1.58 µM [rising, partial curve, poor fit] | 
33 | O=C(CS(=O)CC(=O)Nc1ccc(Cl)cc1)NCC1OCCc2ccccc21 (stereo unspecified) | 23.1 µM [falling, single point] | 
34 | Fc1ccc(NC(=S)Nc2nccs2)cc1 | 20 µM [falling, single point] | 
35 | CC(=O)c1cc(C#N)c(SCC(=O)OC(C)C)nc1C | 23.1 µM [rising, single point] | 
36 | O=C(Nc1ccccn1)c1c(O)c2cccc3c2n(c1=O)CCC3 | 35.5 µM [rising, partial curve, poor fit] | 
37 | Cc1cc(C(=O)COC(=O)c2ccc(O)cc2)c(C)n1CC1CCCO1 (stereo unspecified) | 35.5 µM [falling, single point] | 
38 | C/C(=N\NC(=O)c1ccc(NS(=O)(=O)c2cccs2)cc1)c1ccc2c(c1)OCO2 | 11.2 µM [falling, partial curve, poor fit] | 
39 | CO[C@H]1/C=C/O[C@@]2(C)Oc3c(C)c(O)c4c(O)c(c(C=NN5CCN(C)CC5)c(O)c4c3C2=O)NC(=O)/C(C)=C\C=C\[C@H](C)[C@H](O)[C@@H](C)[C@@H](O)[C@@H](C)[C@H](OC(C)=O)[C@@H]1C | 25.9 µM [rising, single point] | 

Quoted from the listing.
Value for `CCc1nnc(NC(=O)c2ccc3ccccc3n2)s1` under AC50 [1]: 8.91 µM [falling, partial curve]
Value for `CCN(CC)CCCNC(=S)N1CCN(c2nc(-c3ccccc3)cs2)CC1` under AC50 [1]: 35.5 µM [falling, single point]
